Patent US20170246144A1, “METHOD OF PREVENTING OR TREATING SPINOCEREBELLAR ATAXIA BY ADMINISTRATING SILIBININ” (National Taiwan Normal University, priority 2016, published 2017)
For at least one compound, name, drawing or mass did not settle the structure.

How the values were obtained:
[1] = test system: SH-SY5Y cells; experiment: Chemiluminescence (luminol) analysis of ROS induced by MSG; format: cell-based, Human; conditions: 100 mM MSG
Method: FIG. 6A: The ROS productions in 1×10^6 SH-SY5Y cells were measured by chemiluminescence (CL) analysis and luminol measurement, wherein the control group (Ctrl) was untreated SH-SY5Y cells or the cells were treated with 100 mM MSG, 100 mM MSG+15 μM SB or 100 mM MSG+10 μM MK801 (MK) for 24 hours.
It is known that the cyto-toxicity induced by glutamate is associated with mitochondria dysfunction and the increased production of ROS in neuron. In this embodiment, chemiluminescence analysis was performed to measure the level of ROS in order to understand whether silibinin can inhibit the accumulation of ROS associated with glutamatergic excitotoxicity. […] The emission spectrum was blue light which can be monitored by chemiluminescence detector.
SH-SY5Y cells were seeded in dish (1×10^6 cells/plate) for 24 hours, and then were pre-treated with 15 μM silibinin or 10 μM MK-801 for 1 hour followed by the treatment of 100 mM glutamate for 24 hours. The cells were then washed and suspended in 60 μL RIPA on ice bath followed by stirring and centrifugation at 13,000 rpm for […] at 4° C. The obtained protein sample (200 μL, 20 μg) was mixed with 0.5 mL of 0.2 mM luminol (Sigma). After 5 minutes, chemiluminescence analysis system (CLD-110, Tohoku Electronic Inc. Co. Japan) was performed to determine its chemiluminescence.

[2] = test system: SCA17 transgenic mice; experiment: Footprint pattern analysis in SCA17 transgenic mice; format: in vivo; conditions: 4.5 mg/kg i.p. once every 2 days
Method: FIGS. 10A-10F show the effects of SB on the body weight and motor performance in SCA17 transgenic mice. Mice were grouped into wild type-saline (WT-saline), transgenic-saline (TG-saline), and transgenic-SB treatment (TG-SB) groups. Mice were injected intraperitoneally with saline or SB (4.5 mg/kg) at 8-week old once every 2 days. […] FIG. 10E and FIG. 10F show respectively the stride length of front-limb/hind-limb at the right-side and the left-side. The values represent means±SD, n=6. *p<0.05, comparing to the TG-saline group.
Since the SCA17 mice were 8 weeks old, the mice were injected intraperitoneally with silibinin in saline at 4.5 mg/kg once every 2 days, designated as TG_SB group. The mice in TG_saline group were injected with same amount of saline.
In addition, footprint pattern analysis was conducted to observe any abnormity of the gait of the mice. Such test was conducted widely to determine motor skill, coordination and balance. The hindfeet and forefeet of the mouse were coated with red and blue nontoxic paint respectively, and the mouse was allowed to walk along a runway on a fresh sheet of white paper. The distance between the centers of the hind footprint and the fore footprint, the length of the step, and the parallel distance were measured for a continuous 6 steps, excluding the steps in the beginning and at the end. The test was performed once every half month.

[3] = test system: SH-SY5Y cells; experiment: Western blotting of Bax and Bcl-2 after MSG; format: cell-based, Human; conditions: 15 μM silibinin vs 10 μM MK801, 100 mM MSG
Method: The levels of Bax and Bcl-2 in 1×10^6 SH-SY5Y cells were measured by western blotting, wherein the control group (Ctrl) was untreated SH-SY5Y cells or the cells were treated with 100 mM MSG, 100 mM MSG+15 μM SB or 100 mM MSG+10 μM MK801 (MK) for 6 hours. Actin was used as a loading control.
In present embodiment, western blotting was performed to study whether silibinin protects SH-SY5Y cell from apoptosis due to glutamatergic excitotoxicity via mitochondria-dependent apoptosis pathway.
It is known that the reduction of Bcl-2 level and the increases of Bax level are related to the increases of free calcium ion in cytosol. Bcl-2 is a cell-survival protein and Bax is a pro-apoptotic protein and they both mediate the releases of cytochrome C from mitochondria. Therefore, Bcl-2 and Bax are used as indicators in the present embodiment.

[4] = test system: SH-SY5Y cells; experiment: MTT cell viability, glutamatergic excitotoxicity induced by MSG; format: cell-based, Human; conditions: 100 mM MSG 24 hours
[5] = test system: nTBP/Q36-EGFP cells; experiment: MTT viability of Dox-induced nTBP/Q36-EGFP cells; format: cell-based, Human; conditions: Dox induction 1, 3, 5 days

`COc1cc(C2Oc3cc([C@H]4Oc5cc(O)cc(O)c5C(=O)[C@@H]4O)ccc3OC2CO)ccc1O` (some centres unmarked) [silibinin] was tested, and the “extracellular ROS” value ([1]; 10 μM, 24 hours) was “unchanged”, the “speed of inhibiting ROS compared to MK801” value [1] was “more quickly” and the “length of the steps” value [2] was “comparable to that of the control group”. The “effect in increasing the expression level of Bcl-2, versus MK801” value [3] was “equivalent to that of MK801”, the “effect in reducing the expression level of Bax, versus MK801” value [3] was “better than that of MK801” and the “effect on viability of SH-SY5Y cells treated with MSG” value ([4]; 5, 10, 15, 20, 25 or 30 μM silibinin) was “protective effects”. The “viability rate compared with 10 μM MK801” value ([4]; 15-20 μM silibinin) was “equal” and the “cell viability of nTBP/Q36-EGFP cells with or without silibinin” value [5] was “did not change”.
